From paper doi:10.1101/2023.03.18.533296 come the findings set out here.

Amino acid sequences for entries named in this document (tags omitted). Residues count along the entry.
UniProt P55737: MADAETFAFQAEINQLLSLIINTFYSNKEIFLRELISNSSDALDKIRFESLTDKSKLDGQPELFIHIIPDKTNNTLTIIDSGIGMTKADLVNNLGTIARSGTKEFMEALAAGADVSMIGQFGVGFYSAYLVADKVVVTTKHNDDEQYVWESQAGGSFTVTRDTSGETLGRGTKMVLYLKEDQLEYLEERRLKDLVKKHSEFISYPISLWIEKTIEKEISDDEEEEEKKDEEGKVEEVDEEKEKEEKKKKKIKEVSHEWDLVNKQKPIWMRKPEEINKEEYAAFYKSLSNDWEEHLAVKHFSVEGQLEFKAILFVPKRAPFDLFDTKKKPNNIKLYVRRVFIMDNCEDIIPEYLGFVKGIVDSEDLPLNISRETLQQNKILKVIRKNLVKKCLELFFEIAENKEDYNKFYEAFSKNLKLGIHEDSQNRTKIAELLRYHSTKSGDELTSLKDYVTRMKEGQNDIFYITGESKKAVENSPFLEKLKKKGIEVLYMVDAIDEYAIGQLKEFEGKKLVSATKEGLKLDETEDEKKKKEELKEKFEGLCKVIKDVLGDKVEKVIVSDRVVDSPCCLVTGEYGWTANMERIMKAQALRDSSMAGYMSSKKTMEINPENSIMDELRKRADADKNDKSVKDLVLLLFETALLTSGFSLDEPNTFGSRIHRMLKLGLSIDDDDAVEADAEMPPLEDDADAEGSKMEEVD
UniProt Q9LZK5, residues 24-346: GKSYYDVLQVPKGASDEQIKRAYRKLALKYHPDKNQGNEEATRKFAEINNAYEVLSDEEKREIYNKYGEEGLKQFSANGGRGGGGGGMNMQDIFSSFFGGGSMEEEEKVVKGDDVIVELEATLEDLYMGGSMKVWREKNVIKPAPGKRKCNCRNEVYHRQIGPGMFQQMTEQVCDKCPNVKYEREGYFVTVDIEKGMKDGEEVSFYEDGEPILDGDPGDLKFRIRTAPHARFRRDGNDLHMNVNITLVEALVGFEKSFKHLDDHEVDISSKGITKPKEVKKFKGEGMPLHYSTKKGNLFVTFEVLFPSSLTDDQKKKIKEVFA

The test concerns the target T1, GFP-VAMP721^Y57D (Arabidopsis thaliana) (UniProt Q9ZTW3).
T1 sequence: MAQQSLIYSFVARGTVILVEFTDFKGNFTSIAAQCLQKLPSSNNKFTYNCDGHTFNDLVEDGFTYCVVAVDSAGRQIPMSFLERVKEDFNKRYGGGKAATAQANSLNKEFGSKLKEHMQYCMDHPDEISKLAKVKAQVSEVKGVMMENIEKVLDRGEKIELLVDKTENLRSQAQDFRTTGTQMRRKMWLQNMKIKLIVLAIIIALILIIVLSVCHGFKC
Description: affinity purification with mass spectrometry.

These are yes or no findings as the source states them, for the method shown. Binding seen in cells or lysates may run through a third protein. A yes stands for co-enrichment or nearness to the bait. Other partners may have been found. Sequences can lack the tags named with a protein.

As for HSP90-2 (from UniProt P55737 1-699), the binding entry is listed as “binds”. In the case of ERDJ3B (from UniProt Q9LZK5 24-346) it was “binds”.
